From US20200270359A1
Results are given in words; binding and its absence hold for the method and conditions named. Some entries that bind do so weakly or less than the wild type.

B1: IgG1-G28.1-S239D-I332E (antibody, V domains shown)
VH: AVQLQQSGPELEKPGASVKISCKASGYSFTGYNMNWVKQNNGKSLEWIGNIDPYYGGTTYNRKFKGKATLTVDKSSSTAYMQLKSLTSEDSAVYYCARSVGPMDYWGQGTSVTVSS
VL: DIQMTQSPASLSASVGETVTITCRTSENVYSYLAWYQQKQGKSPQLLVSFAKTLAEGVPSRFSGSGSGTQFSLKISSLQPEDSGSYFCQHHSDNPWTFGGGTELEIKR
B2: IgG1-005-H1L2-K409R-E430G (antibody, V domains shown)
VH: EQSVVESGGGLVQPGGSLRLSCTVSGFSLSSNAMNWVRQAPGKGLEWIGLIYASGNTDYASWAKGRFTISKTSTTVYLKITSPTAEDTATYFCAREGSVWGAAFDPWGQGTLVTVSS
VL: AYDMTQSPSSVSASVGDRVTITCQASQSISNWLAWYQQKPGKAPKQLIYAASTLASGVPSRFKGSGSGTDFTLTISSLQPEDFATYYCQQGYSNSNIDNTFGGGTKVEIKR

Experiments:
[1] = target: T1, human (Homo sapiens) CD37 (human (Homo sapiens)) (UniProt P11049); test: binding to Daudi cells (data not shown)
T1 sequence: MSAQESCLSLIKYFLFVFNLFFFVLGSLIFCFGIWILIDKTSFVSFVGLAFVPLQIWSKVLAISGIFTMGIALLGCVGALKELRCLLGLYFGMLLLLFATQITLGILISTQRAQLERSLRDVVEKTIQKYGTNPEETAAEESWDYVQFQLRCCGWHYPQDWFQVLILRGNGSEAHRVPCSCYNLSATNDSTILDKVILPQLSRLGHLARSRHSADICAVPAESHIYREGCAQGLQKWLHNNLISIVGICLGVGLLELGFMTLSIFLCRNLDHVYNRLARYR

[2] = target: T1, human (Homo sapiens) CD37 (human (Homo sapiens)); test: flow cytometry on Daudi cells

Row | Binder | binding [1] | binding [2]
1 | B1 | binds | 
2 | B2 |  | binds
